# Laboratory results: PMC5412012, “HS1BP3 negatively regulates autophagy by modulation of phosphatidic acid levels” (Nature Communications, 2016)
# Chains of the proteins cited; added tags and fusions are not shown. Lines headed by an entry give the natural chain unless they say otherwise; changes in a name come on top. Residues count along the entry.
# UniProt Q14247: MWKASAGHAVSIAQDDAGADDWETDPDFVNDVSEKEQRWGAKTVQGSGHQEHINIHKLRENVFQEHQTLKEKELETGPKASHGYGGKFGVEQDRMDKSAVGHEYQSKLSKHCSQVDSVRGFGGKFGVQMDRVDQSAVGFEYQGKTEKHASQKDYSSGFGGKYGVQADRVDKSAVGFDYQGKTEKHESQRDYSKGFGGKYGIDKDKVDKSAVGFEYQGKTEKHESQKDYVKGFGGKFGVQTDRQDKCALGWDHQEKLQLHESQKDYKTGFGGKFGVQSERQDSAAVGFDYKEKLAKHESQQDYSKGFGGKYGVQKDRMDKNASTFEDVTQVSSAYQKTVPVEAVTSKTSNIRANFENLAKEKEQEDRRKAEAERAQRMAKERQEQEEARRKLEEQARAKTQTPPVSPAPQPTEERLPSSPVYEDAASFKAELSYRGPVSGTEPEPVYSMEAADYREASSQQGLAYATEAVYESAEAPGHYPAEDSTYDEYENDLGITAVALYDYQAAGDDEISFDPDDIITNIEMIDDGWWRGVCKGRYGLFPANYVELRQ
# cortactin SH3 domain: residues 492-550 of Q14247
# UniProt Q676U5: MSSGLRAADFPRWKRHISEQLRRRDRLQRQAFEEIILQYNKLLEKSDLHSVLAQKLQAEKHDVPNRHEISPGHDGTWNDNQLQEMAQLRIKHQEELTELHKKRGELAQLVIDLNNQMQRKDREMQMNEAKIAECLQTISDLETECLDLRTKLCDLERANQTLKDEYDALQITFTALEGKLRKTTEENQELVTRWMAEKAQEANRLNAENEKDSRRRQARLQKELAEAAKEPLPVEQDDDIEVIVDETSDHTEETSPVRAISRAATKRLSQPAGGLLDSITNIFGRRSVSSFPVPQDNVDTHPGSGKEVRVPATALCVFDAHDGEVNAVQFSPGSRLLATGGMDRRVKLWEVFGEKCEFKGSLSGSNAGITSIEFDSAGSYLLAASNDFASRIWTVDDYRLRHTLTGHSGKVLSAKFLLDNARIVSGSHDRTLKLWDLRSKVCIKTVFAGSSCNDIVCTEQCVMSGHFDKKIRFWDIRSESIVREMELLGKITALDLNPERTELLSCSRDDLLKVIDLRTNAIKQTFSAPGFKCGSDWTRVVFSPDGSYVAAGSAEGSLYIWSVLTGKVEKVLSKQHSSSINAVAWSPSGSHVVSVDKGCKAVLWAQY
# Where two headings read alike, the source gives them in different places. No constants are given. Whether binding was seen depends on the method and setting. Binding seen in cells or lysates may run through a third protein. Some binding calls cover weakened binding; strength is not graded here. For part of these data: Where a sequence is shown, tags or fusion partners need not be part of it.
# T1: GFP-HS1BP3 (human) (UniProt Q53T59)
# T1 sequence: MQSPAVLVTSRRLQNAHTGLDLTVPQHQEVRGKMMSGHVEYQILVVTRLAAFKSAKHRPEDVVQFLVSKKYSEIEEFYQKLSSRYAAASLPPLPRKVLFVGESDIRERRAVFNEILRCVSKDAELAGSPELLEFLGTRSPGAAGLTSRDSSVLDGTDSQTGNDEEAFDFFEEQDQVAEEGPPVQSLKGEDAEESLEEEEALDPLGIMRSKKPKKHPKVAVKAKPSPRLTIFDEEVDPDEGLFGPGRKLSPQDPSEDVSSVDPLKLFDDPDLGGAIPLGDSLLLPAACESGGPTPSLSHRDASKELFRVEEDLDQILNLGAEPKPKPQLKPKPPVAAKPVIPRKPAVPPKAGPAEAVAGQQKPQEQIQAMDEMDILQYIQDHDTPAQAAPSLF
# T2: GFP-PLD1 (UniProt Q13393)
# T2 sequence: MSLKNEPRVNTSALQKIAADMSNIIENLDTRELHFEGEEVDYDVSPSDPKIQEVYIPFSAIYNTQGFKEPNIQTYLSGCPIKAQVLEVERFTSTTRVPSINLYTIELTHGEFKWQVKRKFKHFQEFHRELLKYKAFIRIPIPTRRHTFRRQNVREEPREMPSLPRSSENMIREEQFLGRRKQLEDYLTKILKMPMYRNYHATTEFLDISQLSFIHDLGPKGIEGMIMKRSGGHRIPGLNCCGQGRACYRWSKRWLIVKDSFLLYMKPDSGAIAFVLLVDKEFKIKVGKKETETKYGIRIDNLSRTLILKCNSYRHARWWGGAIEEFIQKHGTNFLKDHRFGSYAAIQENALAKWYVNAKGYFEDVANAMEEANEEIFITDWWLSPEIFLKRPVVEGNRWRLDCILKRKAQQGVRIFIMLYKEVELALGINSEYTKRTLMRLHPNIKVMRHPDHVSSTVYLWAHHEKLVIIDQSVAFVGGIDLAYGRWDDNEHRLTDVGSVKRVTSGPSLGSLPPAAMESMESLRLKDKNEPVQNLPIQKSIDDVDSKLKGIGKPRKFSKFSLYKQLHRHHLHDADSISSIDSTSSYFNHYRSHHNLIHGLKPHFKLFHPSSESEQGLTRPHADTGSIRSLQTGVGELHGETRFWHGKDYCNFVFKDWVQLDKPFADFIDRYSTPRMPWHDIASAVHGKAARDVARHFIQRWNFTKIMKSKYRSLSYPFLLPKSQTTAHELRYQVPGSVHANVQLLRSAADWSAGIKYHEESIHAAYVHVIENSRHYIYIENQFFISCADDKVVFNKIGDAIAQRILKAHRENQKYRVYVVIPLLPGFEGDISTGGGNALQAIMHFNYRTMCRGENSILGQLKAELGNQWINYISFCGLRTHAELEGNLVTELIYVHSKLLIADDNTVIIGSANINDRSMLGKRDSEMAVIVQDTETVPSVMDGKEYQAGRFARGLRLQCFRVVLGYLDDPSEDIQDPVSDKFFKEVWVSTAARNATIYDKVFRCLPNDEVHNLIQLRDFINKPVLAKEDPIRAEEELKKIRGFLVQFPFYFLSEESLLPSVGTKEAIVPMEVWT
# T3: HS1 SH3 domain (UniProt P14317)
# T3 sequence: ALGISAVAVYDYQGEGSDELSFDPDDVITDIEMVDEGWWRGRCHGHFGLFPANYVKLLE
# B1: HS1BP3 (construct of the SH3 domain interaction assay, Supplementary Fig. 3b) (protein, UniProt Q53T59 1-392)
# chain: T1 sequence
# B2: PLD1 (over-expressed or endogenous) (enzyme, UniProt Q13393 1-1074)
# chain: T2 sequence
# What was measured:
# GFP-HS1BP3 (human) [1] = molecular target: T1, GFP-HS1BP3 (human); assay: co-IP; GFP, GFP-HS1BP3 or GFP-PLD1 immunoprecipitated from cell lysates by GFP trap (Chromotek); SDS-PAGE and western blotting
# GFP-PLD1 = molecular target: T2, GFP-PLD1; assay: as above
# cortactin SH3 domain = cortactin SH3 domain (UniProt Q14247); assay: pull-down; taken to be the GST pull-down of the methods (glutathione sepharose, immunoblotting); whether with 1 ug recombinant GST- or MBP-tagged proteins in NETN buffer or from cell lysate is not told for this experiment
# HS1 SH3 domain = molecular target: T3, HS1 SH3 domain; assay: as above
# GFP-HS1BP3 (human) [2] = molecular target: T1, GFP-HS1BP3 (human); assay: co-IP; GFP, GFP-HS1BP3 or GFP-PLD1 immunoprecipitated from cell lysates by GFP trap (Chromotek); SDS-PAGE and western blotting; remark: listed apart in the source
molecule,measurement,setting,value
ATG16L1 (over-expressed or endogenous) (from UniProt Q676U5 1-607),binding,GFP-HS1BP3 (human) [1],no binding
same,binding,GFP-PLD1,no binding
cortactin (endogenous) (from UniProt Q14247 1-550),binding,GFP-HS1BP3 (human) [1],binds
B1,binding,cortactin SH3 domain,binds
same,binding,HS1 SH3 domain,binds
B2,binding,GFP-HS1BP3 (human) [2],no binding
